Source: the supplement of paper PMC10331698
± gives the standard deviation of the averaged measurements. Small differences around the control level are noise.

Assays:
Assay in all cases: level (log10 ratio to DMSO vehicle control); higher = higher biomarker level / cell amount than vehicle control
[1] = compound: O=C(O)C(F)(F)C(F)(F)C(F)(F)OC(F)(C(F)(F)F)C(F)(F)F [Perfluoro-4-isopropoxybutanoic acid] (in DMSO); details: 2200 nM
Protocol: (§1)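 BioMAP Diversity Plus panel of 12 human primary cell co-culture systems (3C, 4H, LPS, SAg, BT, BF4T, BE3C, CASM3C, HDF3CGF, KF3CT, MyoF, Mphg). Compounds were added 1 h before stimulation and left for 24 h (MyoF 48 h; BT 72 h for soluble read-outs or 6 d for IgG). Biomarkers were read by ELISA, cytotoxicity by SRB, PBMC viability and proliferation by Alamar Blue. Each well value was divided by the mean of 8 DMSO control wells on the same plate and log10 transformed; duplicate blinded samples were tested at 4 concentrations.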

[2] = compound: OCC(F)(F)C(F)(F)C(F)(F)C(F)(F)C(F)(F)C(F)(F)CO [1H,1H,8H,8H-Perfluorooctane-1,8-diol] (in DMSO); details: 2200 nM
Protocol: as §1

[3] = compound: OCCCC(F)(F)C(F)(F)C(F)(F)C(F)(F)C(F)(F)C(F)(F)C(F)(F)C(F)(F)F [3-(Perfluorooctyl)propanol] (in DMSO); details: 2200 nM
Protocol: as §1

[4] = compound: OCC(F)(F)OC(F)(F)C(F)(F)OC(F)(F)CO [1H,1H,8H,8H-Perfluoro-3,6-dioxaoctane-1,8-diol] (in DMSO); details: 2200 nM
Protocol: as §1

[5] = compound: FC(F)(F)C(F)(F)CNCC(F)(F)C(F)(F)F [Bis(1H,1H-perfluoropropyl)amine] (in DMSO); details: 2200 nM
Protocol: as §1

[6] = compound: O=S(=O)(O)C(F)(F)C(F)(F)C(F)(F)C(F)(F)F [Perfluorobutanesulfonic acid] (in DMSO)
Protocol: as §1

[7] = compound: O=C(O)C(F)(OC(F)(F)C(F)(OC(F)(F)C(F)(OC(F)(F)C(F)(F)C(F)(F)F)C(F)(F)F)C(F)(F)F)C(F)(F)F [Perfluoro-(2,5,8-trimethyl-3,6,9-trioxadodecanoic)acid] (in DMSO); details: 370 nM
Protocol: as §1

Hexafluoroglutaric acid = compound: O=C(O)C(F)(F)C(F)(F)C(F)(F)C(=O)O [Hexafluoroglutaric acid] (in DMSO)
Protocol: as §1

[8] = compound: OCC(F)(F)C(F)(F)C(F)(F)C(F)F [1H,1H,5H-Perfluoropentanol] (in DMSO); details: 2200 nM
Protocol: as §1

[9] = compound: O=C(O)C(F)(OC(F)(F)C(F)(F)C(F)(F)F)C(F)(F)F [Ammonium perfluoro-2-methyl-3-oxahexanoate] (in Water)
Protocol: as §1

[10] = compound: CNS(=O)(=O)C(F)(F)C(F)(F)C(F)(F)C(F)(F)C(F)(F)C(F)(F)C(F)(F)C(F)(F)F [N-Methylperfluorooctanesulfonamide] (in DMSO); details: 2200 nM
Protocol: as §1

[11] = compound: O=C(O)CCC(F)(F)C(F)(F)C(F)(F)F [3:3 Fluorotelomer carboxylic acid] (in DMSO); details: 2200 nM
Protocol: as §1

[12] = compound: C=C(C)C(=O)OCCC(F)(F)C(F)(F)C(F)(F)C(F)(F)C(F)(F)C(F)(F)F [6:2 Fluorotelomer methacrylate] (in DMSO); details: 2200 nM
Protocol: as §1

Perfluorohexanoic acid = compound: O=C(O)C(F)(F)C(F)(F)C(F)(F)C(F)(F)C(F)(F)F [Perfluorohexanoic acid] (in DMSO)
Protocol: as §1

[13] = compound: FC(F)(F)COC(OCC(F)(F)F)OCC(F)(F)F [tris(Trifluoroethoxy)methane] (in DMSO); details: 2200 nM
Protocol: as §1

[14] = compound: OCC(F)(F)C(F)(F)C(F)(F)C(F)(F)C(F)(F)C(F)(F)F [6:1 Fluorotelomer alcohol] (in DMSO); details: 2200 nM
Protocol: as §1

[15] = compound: FC(F)(F)C(F)(F)C(F)(F)C(F)(F)CCI [1H,1H,2H,2H-Perfluorohexyl iodide] (in DMSO); details: 2200 nM
Protocol: as §1

Row | Test System | level (log10) [1] | level (log10) [2] | level (log10) [3] | level (log10) [4] | level (log10) [5] | level (log10) ([6]; 2200 nM) | level (log10) ([6]; 6700 nM) | level (log10) ([6]; 20000 nM) | level (log10) ([6]; 60000 nM) | level (log10) [7] | level (log10) (Hexafluoroglutaric acid; 2200 nM) | level (log10) (Hexafluoroglutaric acid; 6700 nM) | level (log10) (Hexafluoroglutaric acid; 20000 nM) | level (log10) (Hexafluoroglutaric acid; 60000 nM) | level (log10) [8] | level (log10) ([9]; 2200 nM) | level (log10) ([9]; 6700 nM) | level (log10) ([9]; 20000 nM) | level (log10) ([9]; 60000 nM) | level (log10) [10] | level (log10) [11] | level (log10) [12] | level (log10) (Perfluorohexanoic acid; 2200 nM) | level (log10) (Perfluorohexanoic acid; 6700 nM) | level (log10) (Perfluorohexanoic acid; 20000 nM) | level (log10) (Perfluorohexanoic acid; 60000 nM) | level (log10) [13] | level (log10) [14] | level (log10) [15]
1 | BT:Secreted IgG | 0.015 ± 0.023 | 0.0225 ± 0.036 | 0.025 ± 0.0085 | 0.035 ± 0.0085 | 0.025 ± 0.013 | 0.002 ± 0.054 | 0.0005 ± 0.00071 | -0.0055 ± 0.023 | -0.016 ± 0.052 | 0.0105 ± 0.069 | -0.029 ± 0.027 | -0.026 ± 0.04 | 0.055 ± 0.013 | 0.019 ± 0.048 | 0.044 ± 0.02 | -0.141 ± 0.016 | -0.12 ± 0.07 | -0.113 ± 0.059 | -0.156 | 0.009 ± 0.014 | -0.0055 ± 0.00071 | 0.034 ± 0.014 | 0.0015 ± 0.019 | 0.0085 ± 0.00071 | 0.0155 ± 0.03 | -0.023 ± 0.061 | 0.028 ± 0.047 | -0.001 ± 0.059 | -0.0255 ± 0.025
2 | KF3CT:CXCL9/MIG | 0.01 ± 0.0014 | 0.002 ± 0.0014 | -0.009 ± 0.028 | -0.001 ± 0.0071 | 0.0065 ± 0.005 | 0.016 ± 0.027 | 0.0185 ± 0.029 | 0.021 ± 0.017 | 0.0345 ± 0.0078 | -0.0045 ± 0.005 | -0.004 ± 0.0028 | -0.007 ± 0.0014 | -0.0075 ± 0.0064 | -0.0065 ± 0.0021 | -0.002 ± 0.0099 | -0.0015 ± 0.0064 | -0.007 ± 0.011 | 0.0025 ± 0.00071 | 0.0005 ± 0.0021 | 0.01 ± 0.0014 | 0.0005 ± 0.00071 | 0.0135 ± 0.0092 | 0.0045 ± 0.0035 | 0.0075 ± 0.0064 | 0.0035 ± 0.012 | 0.0095 ± 0.012 | 0.013 ± 0.031 | -0.0015 ± 0.0078 | 0.0105 ± 0.0092
3 | BE3C:Keratin 8/18 | 0.0015 ± 0.015 | -0.025 ± 0.0042 | -0.0175 ± 0.026 | 0.008 ± 0.0014 | 0.016 ± 0.018 | -0.0045 ± 0.0078 | 0.003 ± 0.0014 | -0.0035 ± 0.00071 | -0.0165 ± 0.0078 | -0.006 ± 0.024 | -0.0095 ± 0.0021 | -0.006 ± 0.0085 | -0.018 ± 0.0014 | -0.003 ± 0.0042 | -0.004 ± 0.014 | -0.011 ± 0.0057 | -0.042 ± 0.0042 | -0.019 ± 0.024 | -0.0165 ± 0.0092 | 0.009 ± 0.017 | -0.022 ± 0.031 | -0.026 ± 0.028 | -0.008 ± 0.0071 | -0.017 ± 0.0057 | -0.0125 ± 0.0035 | -0.0175 ± 0.021 | -0.01 ± 0.052 | 0.0035 ± 0.035 | -0.0015 ± 0.029
4 | 3C:SRB | -0.0205 ± 0.018 | 0.0175 ± 0.025 | 0.0055 ± 0.0078 | -0.009 ± 0.0085 | 0.0025 ± 0.0021 | -0.013 ± 0.011 | 0.004 ± 0.0099 | -0.0095 ± 0.0035 | -0.021 ± 0.0042 | -0.0015 ± 0.00071 | -0.008 ± 0.0085 | -0.004 ± 0.0014 | -0.005 ± 0.014 | 0.0075 ± 0.028 | -0.0065 ± 0.0035 | -0.0265 ± 0.023 | -0.019 ± 0.011 | -0.021 ± 0.0042 | -0.045 | 0.02 ± 0.0042 | -0.0055 ± 0.0064 | -0.0075 ± 0.00071 | -0.0065 ± 0.011 | -0.0065 ± 0.0078 | -0.011 ± 0.0057 | -0.001 ± 0.0028 | -0.0115 ± 0.0078 | 0 ± 0.0071 | -0.0025 ± 0.0064
5 | MyoF:Decorin | 0.0145 ± 0.047 | 0.003 ± 0.078 | 0.0185 ± 0.042 | -0.002 ± 0.0014 | -0.004 ± 0.0071 | 0.033 | 0.0315 ± 0.012 | 0.03 ± 0.016 | 0.083 ± 0.013 | -0.0055 ± 0.011 | 0.0035 ± 0.0078 | -0.0145 ± 0.0078 | -0.0225 ± 0.0064 | -0.031 ± 0.0099 | 0.0285 ± 0.079 | 0.001 ± 0.033 | -0.048 ± 0.023 | -0.02 ± 0.0085 | -0.024 ± 0.013 | 0.0225 ± 0.052 | -0.0255 ± 0.016 | 0.007 ± 0.0014 | -0.0215 ± 0.0092 | -0.0215 ± 0.015 | 0.0005 ± 0.023 | 0.024 ± 0.013 | -0.0155 ± 0.012 | 0.0175 ± 0.013 | 0.007 ± 0.02
6 | BE3C:CD87/uPAR | 0.0195 ± 0.047 | 0.013 ± 0.013 | 0.01 ± 0.054 | 0.03 ± 0.017 | 0.0085 ± 0.1 | -0.0315 ± 0.022 | -0.035 ± 0.0028 | -0.044 ± 0.016 | -0.037 ± 0.027 | -0.0045 ± 0.016 | 0.0005 ± 0.019 | -0.0045 ± 0.0092 | -0.01 ± 0.014 | -0.0125 ± 0.011 | 0.012 ± 0.025 | 0.0245 ± 0.0021 | 0.011 ± 0.034 | 0.0215 ± 0.0078 | 0.027 ± 0.0085 | 0.0425 ± 0.023 | 0.0085 ± 0.052 | -0.026 ± 0.093 | -0.001 ± 0.0057 | -0.002 ± 0.0085 | -0.0105 ± 0.00071 | 0.0205 ± 0.00071 | -0.0015 ± 0.011 | 0.0205 ± 0.0092 | 0.0185 ± 0.042
7 | BE3C:CD54/ICAM-1 | 0.0115 ± 0.035 | -0.0105 ± 0.011 | 0.005 ± 0.013 | 0.0275 ± 0.012 | 0.0045 ± 0.03 | -0.0035 ± 0.012 | -0.0185 ± 0.0021 | -0.009 ± 0.0028 | -0.021 ± 0.0057 | 0.0225 ± 0.044 | 0.007 ± 0.0042 | 0.018 ± 0.0042 | 0.0095 ± 0.018 | 0.009 ± 0.02 | 0.002 ± 0.025 | -0.004 ± 0.011 | -0.007 ± 0.0057 | -0.0025 ± 0.0035 | -0.016 | 0.024 ± 0.023 | 0.005 ± 0.0085 | 0.01 ± 0.037 | 0.001 ± 0.0085 | 0.0065 ± 0.00071 | -0.0145 ± 0.0064 | -0.014 ± 0.013 | -0.0085 ± 0.012 | 0.002 ± 0.014 | 0.021 ± 0.037
